# Test results as given in paper PMC2790443.
# Sequences of proteins named here, by UniProt entry; tags and fusion partners are left off. Residues count along the entry.
# UniProt P56480, residues 47-529: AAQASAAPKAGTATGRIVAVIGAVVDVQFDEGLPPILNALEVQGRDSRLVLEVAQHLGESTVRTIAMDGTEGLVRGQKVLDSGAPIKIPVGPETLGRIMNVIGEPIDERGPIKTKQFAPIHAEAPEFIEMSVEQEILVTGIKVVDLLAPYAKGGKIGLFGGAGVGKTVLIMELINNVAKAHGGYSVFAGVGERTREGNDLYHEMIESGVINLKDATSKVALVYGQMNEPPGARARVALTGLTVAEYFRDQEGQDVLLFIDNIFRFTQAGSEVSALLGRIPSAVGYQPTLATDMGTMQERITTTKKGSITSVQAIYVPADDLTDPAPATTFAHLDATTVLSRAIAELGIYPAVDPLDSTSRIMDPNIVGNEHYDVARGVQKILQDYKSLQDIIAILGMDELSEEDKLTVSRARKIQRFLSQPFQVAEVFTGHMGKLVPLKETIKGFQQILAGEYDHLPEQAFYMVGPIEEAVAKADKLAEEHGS
# UniProt Q03265, residues 44-553: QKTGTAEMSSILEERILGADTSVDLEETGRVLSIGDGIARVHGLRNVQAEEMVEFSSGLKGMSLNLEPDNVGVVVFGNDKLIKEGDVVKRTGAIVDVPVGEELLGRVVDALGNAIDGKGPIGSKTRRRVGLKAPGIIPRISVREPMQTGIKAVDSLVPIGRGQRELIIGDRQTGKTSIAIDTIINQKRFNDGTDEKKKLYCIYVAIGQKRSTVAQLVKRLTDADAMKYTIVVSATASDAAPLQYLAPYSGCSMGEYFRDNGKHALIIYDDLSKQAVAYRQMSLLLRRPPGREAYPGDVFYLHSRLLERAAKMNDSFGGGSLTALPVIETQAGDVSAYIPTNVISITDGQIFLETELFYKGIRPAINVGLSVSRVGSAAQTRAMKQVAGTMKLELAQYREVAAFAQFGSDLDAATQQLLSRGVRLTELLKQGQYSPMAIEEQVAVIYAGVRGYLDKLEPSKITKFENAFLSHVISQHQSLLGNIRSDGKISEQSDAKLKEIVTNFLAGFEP
# UniProt Q9UBY8: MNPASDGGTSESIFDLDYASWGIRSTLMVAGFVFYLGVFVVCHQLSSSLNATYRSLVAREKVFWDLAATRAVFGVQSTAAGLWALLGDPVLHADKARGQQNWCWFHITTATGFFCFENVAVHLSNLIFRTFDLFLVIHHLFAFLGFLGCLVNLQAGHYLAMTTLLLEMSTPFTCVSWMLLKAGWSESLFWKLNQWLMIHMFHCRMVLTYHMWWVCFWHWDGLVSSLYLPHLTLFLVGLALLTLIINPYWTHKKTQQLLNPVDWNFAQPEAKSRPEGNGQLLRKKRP
# These are yes or no findings as the source states them, for the method shown. Binding seen in cells or lysates may run through a third protein. Some entries that bind do so weakly or less than the wild type. Tags and fused reporters may be left off the sequences shown.
# T1: GST-mCLN5 (mouse CLN5 lacking the signal sequence, aa 26-341, with N-terminal GST) (mouse) (UniProt Q3UMW8)
# T1 sequence: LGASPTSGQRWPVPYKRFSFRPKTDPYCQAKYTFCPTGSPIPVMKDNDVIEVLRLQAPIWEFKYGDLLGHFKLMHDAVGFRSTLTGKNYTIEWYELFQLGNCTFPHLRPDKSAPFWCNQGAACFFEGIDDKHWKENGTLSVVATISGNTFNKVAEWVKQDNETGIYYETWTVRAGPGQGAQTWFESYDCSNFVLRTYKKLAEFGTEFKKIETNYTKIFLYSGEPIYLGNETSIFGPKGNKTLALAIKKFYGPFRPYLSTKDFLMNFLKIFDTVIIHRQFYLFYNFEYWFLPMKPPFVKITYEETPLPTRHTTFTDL
# T2: GST-hPPT1_(28-306) (human) (UniProt P50897)
# T2 sequence: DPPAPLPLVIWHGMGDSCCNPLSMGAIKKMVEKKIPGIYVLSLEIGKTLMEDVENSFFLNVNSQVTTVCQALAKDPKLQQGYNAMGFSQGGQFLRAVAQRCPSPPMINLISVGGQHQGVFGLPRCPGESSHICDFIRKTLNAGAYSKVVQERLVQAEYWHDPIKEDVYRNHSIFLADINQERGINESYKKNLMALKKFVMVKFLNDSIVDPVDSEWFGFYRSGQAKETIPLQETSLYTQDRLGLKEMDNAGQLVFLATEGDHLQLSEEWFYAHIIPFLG
# What was measured:
# [1] = target: T1, GST-mCLN5 (mouse CLN5 lacking the signal sequence, aa 26-341, with N-terminal GST) (mouse); experiment: pull-down; GST-mCLN5 on glutathione-Sepharose 4B beads incubated with COS-1 lysates (~2 mg/ml; transfected or endogenous proteins) overnight at 4°C; lysis buffer 25 mM HEPES pH 7.4, 150 mM NaCl, 1 mM EDTA, 0.5% Triton X-100, 0.5 mM MgCl2; five washes; Western blot; only the target purified
# [2] = target: T2, GST-hPPT1_(28-306) (human); experiment: pull-down; GST fusion proteins (GST-mCLN5, GST-hPPT1) incubated over night at 4°C with 1 ml (2.5 mg/ml) of enriched lysosomal/mitochondrial fraction of liver of wt, Cln1-/- or Cln5-/- mice; EB buffer 100 mM NaCl, 50 mM HEPES pH 7.4, 5 mM MgCl2, 0.5% Triton X-100; blot for α- and β-subunits; only the target purified
# [3] = target: T1, GST-mCLN5 (mouse CLN5 lacking the signal sequence, aa 26-341, with N-terminal GST) (mouse); experiment: as above
# [4] = target: T1, GST-mCLN5 (mouse CLN5 lacking the signal sequence, aa 26-341, with N-terminal GST) (mouse); experiment: pull-down; GST-mCLN5 used to pull down endogenous NCL proteins from HeLa cell lysates; Western blot; only the target purified
# [5] = target: T1, GST-mCLN5 (mouse CLN5 lacking the signal sequence, aa 26-341, with N-terminal GST) (mouse); experiment: pull-down; GST-mCLN5 used to pull down endogenous NCL proteins from mouse brain extract; Western blot; only the target purified
Molecule,binding [1],binding [5],further results
"β-subunit of the mitochondrial ATP synthase (F1-complex), endogenous in mouse liver (from UniProt P56480 47-529)",–,–,binding [2]: binds; binding [3]: binds
"α-subunit of the mitochondrial ATP synthase (F1-complex), endogenous in mouse liver (from UniProt Q03265 44-553)",–,–,binding [2]: binds; binding [3]: binds
"CLN6, endogenous in HeLa cells (protein, UniProt Q9NWW5 1-311) MEATRRRQHLGATGGPGAQLGASFLQARHGSVSADEAARTAPFHLDLWFYFTLQNWVLDFGRPIAMLVFPLEWFPLNKPSVGDYFHMAYNVITPFLLLKLIERSPRTLPRSITYVSIIIFIMGASIHLVGDSVNHRLLFSGYQHHLSVRENPIIKNLKPETLIDSFELLYYYDEYLGHCMWYIPFFLILFMYFSGCFTASKAESLIPGPALLLVAPSGLYYWYLVTEGQIFILFIFTFFAMLALVLHQKRKRLFLDSNGLFLFSSFALTLLLVALWVAWLWNDPVLRKKYPGVIYVPEPWAFYTLHVSSRH",–,–,binding [4]: binds
"CLN3, endogenous in mouse brain (protein, UniProt Q61124 1-438) MGSSAGSWRRLEDSEREETDSEPQAPRLDSRSVLWKNAVGFWILGLCNNFSYVVMLSAAHDILKQEQASGNQSHVEPGPTPTPHNSSSRFDCNSISTAAVLLADILPTLVIKLLAPLGLHLLPYSPRVLVSGVCSAGSFVLVAFSQSVGLSLCGVVLASISSGLGEVTFLSLTAFYPSAVISWWSSGTGGAGLLGSLSYLGLTQAGLSPQHTLLSMLGIPVLLLASYFLLLTSPEPLDPGGENEAETAARQPLIGTETPESKPGASWDLSLQERWTVFKGLLWYIIPLVLVYFAEYFINQGLFELLFFRNTSLSHAQQYRWYQMLYQAGVFASRSSLQCCRIRFTWVLALLQCLNLALLLADVCLNFLPSIYLIFIIILYEGLLGGAAYVNTFHNIALETSDKHREFAMEAACISDTLGISLSGVLALPLHDFLCHLP",–,binds,–
"CLN6, endogenous in mouse brain (protein, UniProt Q3U466 1-308) MEAATRRRQLLGAAGGPGVAFVQARHGSVKAEDKDRTAPFHLDLWFYFTLQNWVLDFGRPIAMLVFPIQWFPLNKPSVGDYFHMTYNIITPFLLLKLIERSPRTLPRSIVYVSIITFIMGASIHLVGDSVNHRLLFSGYQHHLSVRENPIIKNLKPETLIDSFELLYYYDEYLGHCMWYIPFFLILFMYFSGCFTTCKAESHMPGPALLLVVPSGLYYWYLVTEGQIFILFIFTFFAMLALVLHQKRRRLFLDSNGLFLLYSFALTLSLVALWVAWLWNDPVLRKKYPGVIYVPEPWAFYTLHVSSQQ",–,binds,–
"CLN3, overexpressed in COS-1 cells (protein, UniProt Q13286 1-438) MGGCAGSRRRFSDSEGEETVPEPRLPLLDHQGAHWKNAVGFWLLGLCNNFSYVVMLSAAHDILSHKRTSGNQSHVDPGPTPIPHNSSSRFDCNSVSTAAVLLADILPTLVIKLLAPLGLHLLPYSPRVLVSGICAAGSFVLVAFSHSVGTSLCGVVFASISSGLGEVTFLSLTAFYPRAVISWWSSGTGGAGLLGALSYLGLTQAGLSPQQTLLSMLGIPALLLASYFLLLTSPEAQDPGGEEEAESAARQPLIRTEAPESKPGSSSSLSLRERWTVFKGLLWYIVPLVVVYFAEYFINQGLFELLFFWNTSLSHAQQYRWYQMLYQAGVFASRSSLRCCRIRFTWALALLQCLNLVFLLADVWFGFLPSIYLVFLIILYEGLLGGAAYVNTFHNIALETSDEHREFAMAATCISDTLGISLSGLLALPLHDFLCQLS",binds,–,–
"CLN3, endogenous in HeLa cells (protein, UniProt Q13286 1-438) MGGCAGSRRRFSDSEGEETVPEPRLPLLDHQGAHWKNAVGFWLLGLCNNFSYVVMLSAAHDILSHKRTSGNQSHVDPGPTPIPHNSSSRFDCNSVSTAAVLLADILPTLVIKLLAPLGLHLLPYSPRVLVSGICAAGSFVLVAFSHSVGTSLCGVVFASISSGLGEVTFLSLTAFYPRAVISWWSSGTGGAGLLGALSYLGLTQAGLSPQQTLLSMLGIPALLLASYFLLLTSPEAQDPGGEEEAESAARQPLIRTEAPESKPGSSSSLSLRERWTVFKGLLWYIVPLVVVYFAEYFINQGLFELLFFWNTSLSHAQQYRWYQMLYQAGVFASRSSLRCCRIRFTWALALLQCLNLVFLLADVWFGFLPSIYLVFLIILYEGLLGGAAYVNTFHNIALETSDEHREFAMAATCISDTLGISLSGLLALPLHDFLCQLS",–,–,binding [4]: binds

# The next lines start with results.
binding [1],binding [5],Molecule,further results
binds,–,"CLN8-HA, overexpressed in COS-1 cells (from UniProt Q9UBY8 1-286)",–
–,binds,"PPT1/CLN1, endogenous in mouse brain (enzyme, UniProt O88531 28-306) DPPSPPPLVIWHGMGDSCCNPMSMGVIKKMVEKEIPGIYVLSLEIGKNMMEDVENSFFLNVNVQVNMVCQILEKDPKLQQGYNAIGFSQGGQFLRAVAQRCPTPPMMTLISVGGQHQGVFGLPRCPGESSHICDFIRKSLNAGAYSKLVQERLVQAQYWHDPIKESVYRNYSIFLADINQERCVNESYKKNLMALKKFVMVKFFNDSIVDPVDSEWFGFYRSGQAKETIPLQESTLYTEDRLGLKKMDKAGKLVFLAKEGDHLQISKEWFTAHIIPFLK",–
binds,–,"CLN6-c-myc, overexpressed in COS-1 cells (protein, UniProt Q9NWW5 1-311) MEATRRRQHLGATGGPGAQLGASFLQARHGSVSADEAARTAPFHLDLWFYFTLQNWVLDFGRPIAMLVFPLEWFPLNKPSVGDYFHMAYNVITPFLLLKLIERSPRTLPRSITYVSIIIFIMGASIHLVGDSVNHRLLFSGYQHHLSVRENPIIKNLKPETLIDSFELLYYYDEYLGHCMWYIPFFLILFMYFSGCFTASKAESLIPGPALLLVAPSGLYYWYLVTEGQIFILFIFTFFAMLALVLHQKRKRLFLDSNGLFLFSSFALTLLLVALWVAWLWNDPVLRKKYPGVIYVPEPWAFYTLHVSSRH",–
